The target in the test is G subunit of the eIF3 complex (eIF3G) (human (endogenous in HEK293T)), O75821. Put plainly: cross-linking. Conditions: remark: other sources report otherwise.

No constants are given. Whether binding was seen depends on the method and setting. Binding seen in cells or lysates may run through a third protein. Some binding calls cover weakened binding; strength is not graded here.

B1: eIF4A2 (subunit of the eIF4F complex), Q14240 1-407 (protein)
chain: MSGGSADYNREHGGPEGMDPDGVIESNWNEIVDNFDDMNLKESLLRGIYAYGFEKPSAIQQRAIIPCIKGYDVIAQAQSGTGKTATFAISILQQLEIEFKETQALVLAPTRELAQQIQKVILALGDYMGATCHACIGGTNVRNEMQKLQAEAPHIVVGTPGRVFDMLNRRYLSPKWIKMFVLDEADEMLSRGFKDQIYEIFQKLNTSIQVVLLSATMPTDVLEVTKKFMRDPIRILVKKEELTLEGIKQFYINVEREEWKLDTLCDLYETLTITQAVIFLNTRRKVDWLTEKMHARDFTVSALHGDMDQKERDVIMREFRSGSSRVLITTDLLARGIDVQQVSLVINYDLPTNRENYIHRIGRGGRFGRKGVAINFVTEEDKRILRDIETFYNTTVEEMPMNVADLI
As for B1, the binding result is recorded as “binds”.

These data come from article doi:10.1101/2022.02.10.479924.
